According to article PMC6514072:
These are yes or no findings as the source states them, for the method shown. In cells and extracts the contact can be indirect. Some binding calls cover weakened binding; strength is not graded here.

Sequences of proteins named here, by UniProt entry; tags and fusion partners are left off.
UniProt P16671: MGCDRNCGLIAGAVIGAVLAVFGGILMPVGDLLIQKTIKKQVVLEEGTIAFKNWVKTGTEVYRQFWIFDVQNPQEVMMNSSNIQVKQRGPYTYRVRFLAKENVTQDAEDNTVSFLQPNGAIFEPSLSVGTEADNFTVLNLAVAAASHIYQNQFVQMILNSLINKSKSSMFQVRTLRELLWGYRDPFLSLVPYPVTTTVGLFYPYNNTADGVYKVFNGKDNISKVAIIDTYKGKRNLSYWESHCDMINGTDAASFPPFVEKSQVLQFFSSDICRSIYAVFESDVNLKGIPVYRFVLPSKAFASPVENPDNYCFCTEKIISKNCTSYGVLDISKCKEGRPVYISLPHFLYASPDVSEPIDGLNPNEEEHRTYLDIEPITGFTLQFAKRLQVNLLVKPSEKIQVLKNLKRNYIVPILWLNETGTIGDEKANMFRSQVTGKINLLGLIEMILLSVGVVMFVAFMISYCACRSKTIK

Experiments:
[1] = target: NEU1 sialidase (endogenous, plasma membrane of macrophages) (human (endogenous in THP-1)) (UniProt Q99519); assay: co-IP; crude membrane preparations of macrophages differentiated from THP-1 cells, solubilized in TEM buffer with 1% CHAPS; rabbit polyclonal anti-NEU1 or mouse monoclonal anti-CD36 on protein G Sepharose, 2 h at 4 °C; cells with or without kE; Western blot
[2] = target: Platelet glycoprotein 4 (CD36), endogenous in macrophages (human (endogenous in THP-1)) (UniProt P16671); assay: as above
[3] = target: Platelet glycoprotein 4 (CD36), endogenous in macrophages (human (endogenous in THP-1)) (UniProt P16671); assay: co-IP; CD36 immunoprecipitated with a mouse monoclonal anti-CD36 antibody from whole lysate of macrophages; Western blot with rabbit polyclonal anti-NEU3

## Platelet glycoprotein 4 (CD36), endogenous in macrophages (from UniProt P16671 1-472) (receptor)
[1]
  binding: binds

## NEU1 sialidase (endogenous, plasma membrane of macrophages) (from UniProt Q99519 48-415) (enzyme)
[2]
  binding: binds

B1: NEU3 (endogenous in macrophages) (enzyme, UniProt Q9UQ49 1-428)
chain: MEEVTTCSFNSPLFRQEDDRGITYRIPALLYIPPTHTFLAFAEKRSTRRDEDALHLVLRRGLRIGQLVQWGPLKPLMEATLPGHRTMNPCPVWEQKSGCVFLFFICVRGHVTERQQIVSGRNAARLCFIYSQDAGCSWSEVRDLTEEVIGSELKHWATFAVGPGHGIQLQSGRLVIPAYTYYIPSWFFCFQLPCKTRPHSLMIYSDDLGVTWHHGRLIRPMVTVECEVAEVTGRAGHPVLYCSARTPNRCRAEALSTDHGEGFQRLALSRQLCEPPHGCQGSVVSFRPLEIPHRCQDSSSKDAPTIQQSSPGSSLRLEEEAGTPSESWLLYSHPTSRKQRVDLGIYLNQTPLEAACWSRPWILHCGPCGYSDLAALEEEGLFGCLFECGTKQECEQIAFRLFTHREILSHLQGDCTSPGRNPSQFKSN
[3]
  binding: no binding
